The text below walks through data of paper PMC8973668.

Chains of the proteins cited; added tags and fusions are not shown.
UniProt Q14457: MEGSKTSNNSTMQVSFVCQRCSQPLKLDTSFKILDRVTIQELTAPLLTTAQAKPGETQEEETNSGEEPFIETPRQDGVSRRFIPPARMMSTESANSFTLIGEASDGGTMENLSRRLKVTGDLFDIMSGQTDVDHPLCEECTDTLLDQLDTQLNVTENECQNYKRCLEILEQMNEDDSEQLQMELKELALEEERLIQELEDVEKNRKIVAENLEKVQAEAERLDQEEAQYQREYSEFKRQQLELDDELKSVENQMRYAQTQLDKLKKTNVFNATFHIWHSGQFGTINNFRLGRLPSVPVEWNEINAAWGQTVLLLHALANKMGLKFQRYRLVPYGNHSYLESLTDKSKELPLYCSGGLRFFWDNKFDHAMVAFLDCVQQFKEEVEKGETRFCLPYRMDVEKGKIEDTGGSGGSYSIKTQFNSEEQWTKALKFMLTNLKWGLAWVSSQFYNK
UniProt P10415: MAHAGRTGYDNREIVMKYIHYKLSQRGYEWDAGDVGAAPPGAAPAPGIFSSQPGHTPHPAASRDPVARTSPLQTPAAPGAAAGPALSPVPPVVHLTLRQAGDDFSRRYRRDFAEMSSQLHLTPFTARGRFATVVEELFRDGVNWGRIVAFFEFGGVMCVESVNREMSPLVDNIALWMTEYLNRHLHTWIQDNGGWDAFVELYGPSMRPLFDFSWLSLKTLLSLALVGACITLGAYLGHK

The experiment deals with BECN1 (human (endogenous in MCF-7)) (UniProt Q14457). The experiment can be described thus: co-IP; total protein of MCF-7 cells (300 ug), precipitated with antibodies to BECN1 (1:30) or BCL-2 (1:50) and protein A agarose at 4°C, Western blot; cells under normoxia, hypoxia (1% oxygen), or hypoxia with sh-BNIP3. A general note: Immunoblotting shows a protein as a band on a membrane.

These are yes or no findings as the source states them, for the method shown. In cells and extracts the contact can be indirect. Some results given as binding are weak or reduced against the parent protein; the word gives no strength.

For the substance “B-cell lymphoma-2 (BCL-2) (from UniProt P10415 1-239)”, the binding entry is “binds”.
